From article PMC6856136, “Topological DNA-binding of structural maintenance of chromosomes-like RecN promotes DNA double-strand break repair in Escherichia coli” (Communications Biology, 2019)
Results are given in words; binding and its absence hold for the method and conditions named. Some results given as binding are weak or reduced against the parent protein; the word gives no strength. Tags and fused reporters may be left off the sequences shown.

By UniProt entry, the sequences of proteins in these tests, tags left out.
UniProt P0A7G6: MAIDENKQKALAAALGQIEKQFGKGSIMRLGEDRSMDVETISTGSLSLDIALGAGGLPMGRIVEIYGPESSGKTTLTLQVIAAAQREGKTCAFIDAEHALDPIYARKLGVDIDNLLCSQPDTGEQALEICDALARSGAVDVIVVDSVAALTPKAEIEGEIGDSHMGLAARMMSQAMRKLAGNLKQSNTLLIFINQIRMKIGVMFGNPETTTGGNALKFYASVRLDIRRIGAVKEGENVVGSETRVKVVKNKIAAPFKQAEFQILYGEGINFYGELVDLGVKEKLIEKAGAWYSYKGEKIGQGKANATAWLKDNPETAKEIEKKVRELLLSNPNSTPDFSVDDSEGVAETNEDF

Target: T1, N-terminally hexahistidine-fused RecN (His-RecN), Escherichia coli (E. coli) (UniProt P05824)
T1 sequence: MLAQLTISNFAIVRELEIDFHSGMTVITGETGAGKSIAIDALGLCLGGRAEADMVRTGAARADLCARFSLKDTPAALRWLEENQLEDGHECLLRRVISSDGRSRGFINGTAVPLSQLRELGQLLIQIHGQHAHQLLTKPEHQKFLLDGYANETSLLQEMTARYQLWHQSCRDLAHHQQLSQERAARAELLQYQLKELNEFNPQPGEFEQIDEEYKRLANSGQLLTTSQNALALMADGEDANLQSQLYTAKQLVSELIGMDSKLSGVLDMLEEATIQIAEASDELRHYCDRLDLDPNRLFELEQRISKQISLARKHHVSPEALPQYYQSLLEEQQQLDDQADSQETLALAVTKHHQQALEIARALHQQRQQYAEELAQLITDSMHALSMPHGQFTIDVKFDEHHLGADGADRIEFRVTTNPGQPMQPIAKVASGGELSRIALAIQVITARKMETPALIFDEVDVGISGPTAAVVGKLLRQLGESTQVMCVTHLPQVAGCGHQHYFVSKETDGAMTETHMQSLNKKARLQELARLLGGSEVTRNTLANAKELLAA
Experiment: pull-down; His-RecN (1 uM) and RecA (1 uM) incubated at 37 °C for 10 min in buffer D (20 mM Tris-HCl pH 7.5, 0.01% NP-40, 7 mM 2-mercaptoethanol) with 50 mM KCl, 2 mM MgCl2, 5% glycerol, 2 mM ATP; captured on Co2+-conjugated magnetic beads with 10 mM imidazole at 4 °C for 15 min; washed with 100 mM KCl, 20 mM imidazole; SDS-PAGE and CBB staining; both purified

binding: binds weakly
Substance: E. coli RecA (from UniProt P0A7G6 1-353)
